Source: the supplement of paper PMC7889204
This is one part of the list. Single values are uncertain, as repeats are few or missing.

System: C6
Experiment: cell mass (Coomassie absorbance) after combination of library compound with HMBA, relative to vehicle control (fraction); higher = more remaining cells (less growth inhibition)

SMILES | cell mass
CCOc1cc2ncc(C#N)c(Nc3ccc(OCc4ccccn4)c(Cl)c3)c2cc1NC(=O)/C=C/CN(C)C [Neratinib] + CC(=O)NCCCCCCNC(C)=O [hexamethylene bisacetamide] | 0.734
C=CC(=O)Nc1cccc(Oc2nc(Nc3ccc(N4CCN(C)CC4)cc3OC)ncc2Cl)c1 + CC(=O)NCCCCCCNC(C)=O [hexamethylene bisacetamide] | 0.43
Oc1nc(-c2ccc(C(F)(F)F)cc2)nc2c1CSCC2 + CC(=O)NCCCCCCNC(C)=O [hexamethylene bisacetamide] | 0.454
Cc1cc(C(C)Nc2ccccc2)c2nc(N3CCOCC3)cc(=O)n2c1 (stereo not drawn) + CC(=O)NCCCCCCNC(C)=O [hexamethylene bisacetamide] | 0.641
COc1cc2ncnc(-n3nc(-c4ccccn4)nc3N)c2cc1OC + CC(=O)NCCCCCCNC(C)=O [hexamethylene bisacetamide] | 0.583
C=C1C(=O)O[C@@H]2/C=C(\C)CC/C=C(\C)CC[C@@H]12 [Costunolide] + CC(=O)NCCCCCCNC(C)=O [hexamethylene bisacetamide] | 0.383
COc1cc(Nc2ncc(F)c(Nc3ccc4c(n3)NC(=O)C(C)(C)O4)n2)cc(OC)c1OC [R406(free base)] + CC(=O)NCCCCCCNC(C)=O [hexamethylene bisacetamide] | 0.267
CCCNC(=O)Nc1ccc(Oc2ncnc3cc(OC)c(OC)cc23)cc1Cl + CC(=O)NCCCCCCNC(C)=O [hexamethylene bisacetamide] | 0.64

A run of entries from further up:
SMILES | cell mass
COc1cc(Nc2ncc(F)c(Nc3ccc4c(n3)NC(=O)C(C)(C)O4)n2)cc(OC)c1OC [R406(free base)] + CC(=O)NCCCCCCNC(C)=O [hexamethylene bisacetamide] | 0.267
CCCNC(=O)Nc1ccc(Oc2ncnc3cc(OC)c(OC)cc23)cc1Cl + CC(=O)NCCCCCCNC(C)=O [hexamethylene bisacetamide] | 0.64
